Laboratory results: the supplement of paper PMC7666118
The other results are listed elsewhere or left out.

Protein sequences, listed by entry. Tags and fused reporters are not part of them. Lines headed by an entry give the natural chain unless they say otherwise; changes in a name come on top.
UniProt Q86UP2: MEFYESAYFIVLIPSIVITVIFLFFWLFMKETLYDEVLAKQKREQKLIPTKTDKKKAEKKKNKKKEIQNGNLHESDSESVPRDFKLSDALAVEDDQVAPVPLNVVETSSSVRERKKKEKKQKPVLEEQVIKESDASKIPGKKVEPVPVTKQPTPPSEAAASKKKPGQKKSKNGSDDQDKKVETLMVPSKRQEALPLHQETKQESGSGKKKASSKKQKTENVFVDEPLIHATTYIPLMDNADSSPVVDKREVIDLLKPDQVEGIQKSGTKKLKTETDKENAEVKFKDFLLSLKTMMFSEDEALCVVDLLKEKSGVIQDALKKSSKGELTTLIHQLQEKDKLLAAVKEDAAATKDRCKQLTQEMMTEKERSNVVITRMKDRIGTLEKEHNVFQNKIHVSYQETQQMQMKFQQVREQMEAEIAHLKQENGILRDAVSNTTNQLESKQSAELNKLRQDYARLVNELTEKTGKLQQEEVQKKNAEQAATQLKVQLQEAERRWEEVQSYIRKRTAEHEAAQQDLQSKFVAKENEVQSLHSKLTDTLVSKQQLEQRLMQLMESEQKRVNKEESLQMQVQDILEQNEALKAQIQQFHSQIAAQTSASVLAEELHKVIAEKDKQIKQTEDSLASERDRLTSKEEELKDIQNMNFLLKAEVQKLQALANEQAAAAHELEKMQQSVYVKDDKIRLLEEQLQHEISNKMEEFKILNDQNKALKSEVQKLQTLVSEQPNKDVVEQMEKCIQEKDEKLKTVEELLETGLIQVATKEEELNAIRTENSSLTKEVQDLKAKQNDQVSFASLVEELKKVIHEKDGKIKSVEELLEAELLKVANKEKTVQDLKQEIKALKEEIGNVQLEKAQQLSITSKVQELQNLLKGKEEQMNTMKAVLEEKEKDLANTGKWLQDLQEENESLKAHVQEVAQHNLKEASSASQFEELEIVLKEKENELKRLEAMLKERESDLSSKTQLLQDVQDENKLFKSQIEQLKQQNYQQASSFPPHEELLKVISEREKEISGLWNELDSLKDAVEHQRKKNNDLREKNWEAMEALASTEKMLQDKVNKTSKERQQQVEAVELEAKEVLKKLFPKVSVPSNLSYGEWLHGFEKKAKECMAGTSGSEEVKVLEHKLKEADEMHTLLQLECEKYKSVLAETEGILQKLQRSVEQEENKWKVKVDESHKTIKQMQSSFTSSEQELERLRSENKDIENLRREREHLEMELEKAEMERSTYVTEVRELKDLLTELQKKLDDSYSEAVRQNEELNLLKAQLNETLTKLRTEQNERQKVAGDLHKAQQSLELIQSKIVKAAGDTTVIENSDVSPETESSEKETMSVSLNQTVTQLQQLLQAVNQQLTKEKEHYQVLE
UniProt P49257: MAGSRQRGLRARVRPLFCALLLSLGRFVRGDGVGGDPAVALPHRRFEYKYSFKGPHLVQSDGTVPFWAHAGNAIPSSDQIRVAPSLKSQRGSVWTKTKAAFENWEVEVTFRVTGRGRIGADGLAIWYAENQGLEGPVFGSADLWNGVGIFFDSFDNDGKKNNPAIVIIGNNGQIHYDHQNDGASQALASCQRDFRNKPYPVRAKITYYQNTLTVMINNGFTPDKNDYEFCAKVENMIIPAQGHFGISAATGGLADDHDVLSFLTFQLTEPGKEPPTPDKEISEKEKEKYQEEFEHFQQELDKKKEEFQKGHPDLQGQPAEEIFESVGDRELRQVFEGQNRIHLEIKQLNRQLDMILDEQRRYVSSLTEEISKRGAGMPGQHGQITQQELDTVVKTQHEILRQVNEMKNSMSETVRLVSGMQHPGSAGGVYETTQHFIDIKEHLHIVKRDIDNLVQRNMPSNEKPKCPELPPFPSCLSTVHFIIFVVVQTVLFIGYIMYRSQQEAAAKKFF
UniProt Q03252: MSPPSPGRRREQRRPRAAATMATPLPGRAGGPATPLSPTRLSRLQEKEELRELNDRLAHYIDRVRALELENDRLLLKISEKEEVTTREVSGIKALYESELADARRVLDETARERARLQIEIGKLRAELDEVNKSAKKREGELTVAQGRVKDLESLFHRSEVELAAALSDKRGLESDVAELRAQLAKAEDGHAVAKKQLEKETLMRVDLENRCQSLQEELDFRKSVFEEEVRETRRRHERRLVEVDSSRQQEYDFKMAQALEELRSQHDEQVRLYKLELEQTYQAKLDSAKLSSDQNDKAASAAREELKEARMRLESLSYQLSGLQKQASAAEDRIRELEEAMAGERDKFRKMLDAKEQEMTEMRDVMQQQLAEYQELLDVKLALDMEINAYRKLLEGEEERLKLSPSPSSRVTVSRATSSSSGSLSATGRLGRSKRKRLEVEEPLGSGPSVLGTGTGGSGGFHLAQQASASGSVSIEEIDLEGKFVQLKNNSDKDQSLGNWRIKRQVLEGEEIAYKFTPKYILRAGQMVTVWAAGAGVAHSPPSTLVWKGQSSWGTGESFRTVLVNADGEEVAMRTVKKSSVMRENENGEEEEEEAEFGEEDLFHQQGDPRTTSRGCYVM
UniProt Q9HD34: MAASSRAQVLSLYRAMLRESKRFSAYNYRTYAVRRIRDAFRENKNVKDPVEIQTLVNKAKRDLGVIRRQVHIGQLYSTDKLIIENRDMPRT
UniProt P38571: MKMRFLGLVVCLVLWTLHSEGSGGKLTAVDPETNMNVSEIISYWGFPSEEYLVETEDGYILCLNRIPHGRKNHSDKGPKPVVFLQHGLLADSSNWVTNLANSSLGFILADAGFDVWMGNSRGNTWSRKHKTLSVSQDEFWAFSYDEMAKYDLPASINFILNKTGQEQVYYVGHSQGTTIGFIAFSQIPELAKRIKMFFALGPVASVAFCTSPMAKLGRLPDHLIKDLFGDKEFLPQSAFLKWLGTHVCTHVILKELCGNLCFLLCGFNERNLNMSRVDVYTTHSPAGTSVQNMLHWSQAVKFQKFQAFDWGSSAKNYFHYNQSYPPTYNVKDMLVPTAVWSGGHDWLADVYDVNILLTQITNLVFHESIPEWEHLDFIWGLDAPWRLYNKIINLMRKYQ
UniProt Q9P2J3: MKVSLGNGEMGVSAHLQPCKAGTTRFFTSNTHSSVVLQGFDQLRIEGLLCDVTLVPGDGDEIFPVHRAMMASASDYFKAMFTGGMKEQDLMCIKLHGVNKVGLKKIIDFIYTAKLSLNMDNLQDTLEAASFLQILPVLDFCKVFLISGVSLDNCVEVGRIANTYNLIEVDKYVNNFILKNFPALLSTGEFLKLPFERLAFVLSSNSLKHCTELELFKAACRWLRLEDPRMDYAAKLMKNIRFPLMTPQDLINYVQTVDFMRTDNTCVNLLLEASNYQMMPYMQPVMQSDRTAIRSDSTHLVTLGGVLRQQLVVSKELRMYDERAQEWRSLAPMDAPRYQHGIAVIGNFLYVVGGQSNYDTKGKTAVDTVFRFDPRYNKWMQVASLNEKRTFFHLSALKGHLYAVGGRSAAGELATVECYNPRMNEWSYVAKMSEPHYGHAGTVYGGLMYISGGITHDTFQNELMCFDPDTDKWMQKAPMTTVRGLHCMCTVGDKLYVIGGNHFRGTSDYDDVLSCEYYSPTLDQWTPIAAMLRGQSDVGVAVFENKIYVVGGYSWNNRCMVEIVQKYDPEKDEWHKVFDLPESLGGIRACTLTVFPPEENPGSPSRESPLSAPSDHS
UniProt P49916: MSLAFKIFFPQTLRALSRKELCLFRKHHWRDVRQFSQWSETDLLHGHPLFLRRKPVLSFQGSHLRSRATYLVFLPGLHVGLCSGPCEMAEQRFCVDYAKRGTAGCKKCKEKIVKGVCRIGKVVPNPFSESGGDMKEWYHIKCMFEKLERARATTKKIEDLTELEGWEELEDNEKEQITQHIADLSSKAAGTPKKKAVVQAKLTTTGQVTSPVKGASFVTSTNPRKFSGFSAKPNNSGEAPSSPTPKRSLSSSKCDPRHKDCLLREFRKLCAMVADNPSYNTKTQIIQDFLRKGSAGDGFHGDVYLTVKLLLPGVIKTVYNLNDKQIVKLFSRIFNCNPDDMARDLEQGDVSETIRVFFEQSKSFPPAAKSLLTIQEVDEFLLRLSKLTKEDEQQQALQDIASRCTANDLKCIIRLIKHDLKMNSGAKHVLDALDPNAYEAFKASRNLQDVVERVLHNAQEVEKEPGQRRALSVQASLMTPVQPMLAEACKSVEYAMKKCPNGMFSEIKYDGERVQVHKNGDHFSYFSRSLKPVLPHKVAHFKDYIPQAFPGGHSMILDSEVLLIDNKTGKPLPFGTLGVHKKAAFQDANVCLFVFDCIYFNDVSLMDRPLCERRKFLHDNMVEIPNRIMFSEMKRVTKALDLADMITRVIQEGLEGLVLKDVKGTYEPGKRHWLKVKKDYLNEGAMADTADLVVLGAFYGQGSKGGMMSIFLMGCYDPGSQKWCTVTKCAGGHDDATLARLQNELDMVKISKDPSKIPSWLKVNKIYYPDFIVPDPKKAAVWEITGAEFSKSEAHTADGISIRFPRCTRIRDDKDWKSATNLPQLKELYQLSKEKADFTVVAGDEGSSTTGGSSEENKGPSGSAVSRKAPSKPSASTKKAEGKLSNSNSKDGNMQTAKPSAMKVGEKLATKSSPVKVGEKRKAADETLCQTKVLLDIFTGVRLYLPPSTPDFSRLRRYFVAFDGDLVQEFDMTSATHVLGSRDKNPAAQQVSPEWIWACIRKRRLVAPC
UniProt P01130: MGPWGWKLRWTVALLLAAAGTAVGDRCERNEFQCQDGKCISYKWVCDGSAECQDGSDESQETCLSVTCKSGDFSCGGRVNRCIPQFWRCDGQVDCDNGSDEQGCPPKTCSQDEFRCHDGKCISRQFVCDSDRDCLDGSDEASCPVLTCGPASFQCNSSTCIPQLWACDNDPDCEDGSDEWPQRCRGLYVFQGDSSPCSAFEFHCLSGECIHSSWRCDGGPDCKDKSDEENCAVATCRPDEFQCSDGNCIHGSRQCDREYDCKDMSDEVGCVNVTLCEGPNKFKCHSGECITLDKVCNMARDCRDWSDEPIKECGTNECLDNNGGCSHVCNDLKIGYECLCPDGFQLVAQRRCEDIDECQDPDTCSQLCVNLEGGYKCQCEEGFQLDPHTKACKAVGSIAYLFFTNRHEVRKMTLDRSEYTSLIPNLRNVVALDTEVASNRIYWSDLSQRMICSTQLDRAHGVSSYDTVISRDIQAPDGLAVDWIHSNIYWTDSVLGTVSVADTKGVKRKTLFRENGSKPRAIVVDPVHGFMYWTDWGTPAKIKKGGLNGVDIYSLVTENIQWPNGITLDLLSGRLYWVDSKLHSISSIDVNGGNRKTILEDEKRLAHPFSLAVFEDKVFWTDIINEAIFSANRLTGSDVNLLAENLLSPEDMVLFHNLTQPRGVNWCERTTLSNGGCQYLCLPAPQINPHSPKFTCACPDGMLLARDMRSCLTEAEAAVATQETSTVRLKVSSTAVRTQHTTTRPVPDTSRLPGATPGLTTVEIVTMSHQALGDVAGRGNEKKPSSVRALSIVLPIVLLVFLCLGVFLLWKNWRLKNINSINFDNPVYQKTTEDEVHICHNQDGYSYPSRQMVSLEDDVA
UniProt Q8TCA0: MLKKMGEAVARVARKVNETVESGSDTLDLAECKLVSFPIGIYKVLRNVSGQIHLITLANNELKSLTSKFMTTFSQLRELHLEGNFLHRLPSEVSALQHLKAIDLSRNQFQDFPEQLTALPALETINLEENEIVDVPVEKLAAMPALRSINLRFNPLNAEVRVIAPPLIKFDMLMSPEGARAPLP
UniProt Q9NUN5: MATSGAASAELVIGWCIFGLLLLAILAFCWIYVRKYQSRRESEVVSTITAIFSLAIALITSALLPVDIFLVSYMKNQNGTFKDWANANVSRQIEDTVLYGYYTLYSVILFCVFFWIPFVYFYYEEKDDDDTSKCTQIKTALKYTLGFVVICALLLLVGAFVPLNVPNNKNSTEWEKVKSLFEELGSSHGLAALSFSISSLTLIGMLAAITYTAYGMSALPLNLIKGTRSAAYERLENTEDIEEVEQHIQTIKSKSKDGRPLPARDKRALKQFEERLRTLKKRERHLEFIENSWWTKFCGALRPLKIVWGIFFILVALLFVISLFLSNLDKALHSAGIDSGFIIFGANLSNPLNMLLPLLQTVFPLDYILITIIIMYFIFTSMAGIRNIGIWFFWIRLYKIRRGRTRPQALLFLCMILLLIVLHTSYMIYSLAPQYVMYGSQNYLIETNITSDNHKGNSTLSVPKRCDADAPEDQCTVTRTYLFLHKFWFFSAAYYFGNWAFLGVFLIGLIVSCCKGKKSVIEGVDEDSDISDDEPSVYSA

The targets below were run with COc1ccc(Cn2ccc3ccc(C(=O)NO)cc32)cc1 (assay: dose-dependent thermal stabilisation call (2D-TPP, DLPTP, 10% FDR) (binary (1 = stabilised)); higher = stabilised by the compound). Details: system: HL-60 intact cells; concentration range 0.04-10 µM.

| Target | dose-dependent thermal stabilisation call |
| --- | --- |
| KTN1 (UniProt Q86UP2) | inactive: 0 |
| KPNA3 (UniProt O00505) | inactive: 0 |
| LYSMD1 (UniProt Q96S90) | inactive: 0 |
| KIF23 (UniProt Q02241) | inactive: 0 |
| LMAN1 (UniProt P49257) | inactive: 0 |
| LASP1 (UniProt Q14847) | inactive: 0 |
| LOC100132129 | inactive: 0 |
| LMNB2 (UniProt Q03252) | inactive: 0 |
| KIAA1147 (UniProt A4D1U4) | inactive: 0 |
| LYRM4 (UniProt Q9HD34) | inactive: 0 |
| L3MBTL3 (UniProt Q96JM7) | inactive: 0 |
| KLHL26 (UniProt Q53HC5) | inactive: 0 |
| LSM3 (UniProt P62310) | inactive: 0 |
| LSM5 (UniProt Q9Y4Y9) | inactive: 0 |
| MACC1 (UniProt Q6ZN28) | inactive: 0 |
| LYAR (UniProt Q9NX58) | inactive: 0 |
| KIAA1467 (UniProt A2RU67) | inactive: 0 |
| LIPA (UniProt P38571) | inactive: 0 |
| KNTC1 (UniProt P50748) | inactive: 0 |

Part of the list above, tab-delimited.
Target	dose-dependent thermal stabilisation call
LSM3 (UniProt P62310)	inactive: 0
LSM5 (UniProt Q9Y4Y9)	inactive: 0

Additional records

| Target | dose-dependent thermal stabilisation call |
| --- | --- |
| KLHDC4 (UniProt Q8TBB5) | inactive: 0 |
| LETMD1 (UniProt Q6P1Q0) | inactive: 0 |
| LIG1 (UniProt P18858) | inactive: 0 |
| KIAA0922 (UniProt A2VDJ0) | inactive: 0 |
| KIF14 (UniProt Q15058) | inactive: 0 |
| LATS1 (UniProt O95835) | inactive: 0 |
| MAGT1 (UniProt Q9H0U3) | inactive: 0 |
| LGTN (UniProt P41214) | inactive: 0 |
| LZTR1 (UniProt Q8N653) | inactive: 0 |
| KLHL9 (UniProt Q9P2J3) | inactive: 0 |
| LIG3 (UniProt P49916) | inactive: 0 |
| LDLR (UniProt P01130) | inactive: 0 |
| KIN (UniProt O60870) | inactive: 0 |
| KIAA1244 (UniProt Q5TH69) | inactive: 0 |
| LRRC20 (UniProt Q8TCA0) | inactive: 0 |
| LIG4 (UniProt P49917) | inactive: 0 |
| LIPT1 (UniProt Q9Y234) | inactive: 0 |
| LMBRD1 (UniProt Q9NUN5) | inactive: 0 |
